Measured values published in patent US7604955B2, “Immunoglobulin E vaccines and methods of use thereof” (priority 2001, dated 2009).
Where “and” joins values, the source holds several entries; their conditions need not be identical. Identical values can stand only once. Entries after “also recorded” stand apart in the source; their conditions may differ. Not every detail of the peptide structures is certain; ends, links or a residue may be inferred. Ends that are not written are not given here. Peptide text beside a SMILES is read from it.

Experiments:
[1] = test system: murine immunoglobulin E-secreting B4 hybridoma cells; assay: Chromium release assay: CTL from immunized 129/SvEv mice against B4 hybridoma cells; assay type: cell-based, mouse
26.82 hybridoma cells = assay: IgE production by 26.82 hybridoma cells co-cultured with p3-elicited CTL (double-sandwich ELISA); assay type: cell-based, mouse; details: CTL from BALB/c mice immunized with p3 + OVAp in DOTAP liposomes; E/T ratio of 30 to 1
[2] = test system: P815 murine mastocytoma cells; assay: Chromium release assay: CTL from peptide-immunized BALB/c mice against peptide-contacted P815 cells; assay type: cell-based, mouse
Description: The test peptides p 1 and p2 were evaluated for the ability to elicit in mice a cytotoxic T-lymphocyte response to naturally presented immunoglobulin E peptides. Eight-week old BALB/c mice in groups of four were each immunized with 30 micrograms of one of the test peptides p1 or p2, together with 30 micrograms of the co-stimulatory factor OVAp (ovalbumin peptide) (Schimokevitz, 1984, J. Immunol., 133:2067), an oligopeptide consisting of the sequence […](SEQ ID NO. 3), in N-[1-(-2,3-dioleoyloxy)propyl]-N,N,N-trimethylammonium methylsulfate (DOTAP, purchased from Boehringer Mannheim, Indianapolis, Ind.) cationic liposomes. Two weeks after the first immunization, mice in each respective group were immunized a second time with the appropriate test peptide (p1 or p2) that had been used in the initial immunization. Two weeks after the second immunization, 5×10^6 spleen cells were removed from a pool of two to four mice, established in vitro, and re-stimulated with the respective test peptide in vitro for seven days. The cytotoxic T-lymphocytes thus obtained were tested using a standard chromium release assay (Colligan et al. 2002, Current Protocols in Immunology, 3.11) for their ability as effector cells to lyse target cells. The target cells consisted of P815 murine mastocytoma cells that had been contacted with the appropriate test peptide (p1 or p2) and treated overnight with 50 units per milliliter interferon-gamma to facilitate processing of the test peptide. Effector cells (E) and target cells (T) were mixed at different E/T ratios for 4 hours. The specific lysis was determined by the following formula: [(experimental release−spontaneous release)/(maximal release−spontaneous release)]×100.
The test peptide p3 was similarly evaluated for the ability to elicit a cytotoxic T-lymphocyte response in mice to naturally processed and presented immunoglobulin E peptides. […] The specific lysis was determined by the following formula: [(experimental release−spontaneous release)/(maximal release−spontaneous release)]×100.

[3] = test system: murine EL-4 lymphoma cells; assay: Chromium release assay: CTL from immunized 129/SvEv mice against p3-contacted EL-4 cells; assay type: cell-based, mouse; details: 129/SvEv IgE-/- mice immunized with p3 + OVAp in DOTAP liposomes or with dendritic cells treated with p3 and OVAp
KLH-specific IgE = assay: Allergen-specific (KLH-specific) IgE in vivo by passive cutaneous anaphylaxis (PCA); parameters: species or system mouse; details: BALB/c mice immunized twice with peptide + OVAp in DOTAP liposomes, KLH/alum challenge; pooled blood; p<0.01
Description: In a third experiment, the effect of immunoglobulin E peptide immunization on production of allergen-specific IgE in vivo was determined. Adult BALB/c mice (5/group) were immunized twice with either the test peptide p3 or the test peptide p1, together with the co-stimulatory factor OVAp in DOTAP liposomes, or with only the co-stimulatory factor OVAp in DOTAP liposomes. Mice immunized with saline served as control. Seven days after the second immunization, mice were challenged with 1 microgram keyhole limpet hemocyanin (KLH) in 2 milligrams alum intraperitoneally four times at a 10 day interval, and the allergen-specific (KLH-specific) IgE in pooled blood was then determined by passive cutaneous anaphylaxis (PCA) reaction. […] Reduction of allergen-specific PCA correlated directly with the elicitation of IgE peptide-specific cytotoxic T-lymphocytes in vitro (as depicted in FIG. 3B).

[4] = test system: P815 murine mastocytoma cells; assay: Chromium release assay: CTL from BALB/c mice immunized with p3/OVAp-pulsed dendritic cells against p3-contacted P815 cells; assay type: cell-based, mouse; details: BALB/c mice immunized with 2x10^4 dendritic cells treated with p3 and OVAp
26.82 hybridomas = assay: Chromium release assay: CTL from immunized 129/SvEv mice against 26.82 hybridomas; assay type: cell-based, mouse; details: 129/SvEv IgE+/+ mice immunized with p3 + OVAp in DOTAP liposomes or with dendritic cells treated with p3 and OVAp
[5] = test system: LPS and IL-4 stimulated B-lymphocyte cultures; assay: Polyclonal IgE production by LPS and IL-4 stimulated B-lymphocyte cultures with CTL (ELISA); assay type: cell-based, mouse; details: CTL from p3-immunized mice; versus 75 and 72 nanograms per milliliter respectively
Description: In a second experiment, BALB/c splenic B-lymphocytes were enriched by magnetic beads coated with an antibody against the B-lymphocyte-specific cell surface antigen B220. To assess CTL effects on polyclonal IgE production, 3×10^5 normal B-lymphocytes were added to either 3×10^6 p3-activated spleen cells from mice immunized with test peptide p3 together with the co-stimulatory factor OVAp in DOTAP liposomes, or to 3×10^6 p3-activated spleen cells from mice immunized with only the co-stimulatory factor OVAp in DOTAP liposomes as a control. The co-cultures were then stimulated with 20 micrograms per milliliter lipopolysaccharide (LPS) and 250 units per milliliter murine recombinant interleukin-4 (IL-4). Two days later, the culture supernatants were harvested. Immunoglobulin E levels were determined using a commercial double-sandwich ELISA assay (catalogue number 2655KI, PharMingen).

[6] = test system: IgE-secreting 26.82 hybridomas; assay: Chromium release assay: CTL from BALB/c mice immunized with p3/OVAp-pulsed dendritic cells against 26.82 hybridomas; assay type: cell-based, mouse
B4 hybridoma cells = assay: IgE production by B4 hybridoma cells co-cultured with p3-elicited CTL (double-sandwich ELISA); assay type: cell-based, mouse; details: CTL from BALB/c mice immunized with p3 + OVAp in DOTAP liposomes; E/T ratio of 30 to 1

Compound	lysis of B4 hybridoma cells (H-2b haplotype) ([1]; 129/SvEv IgE+/+ mice immunized with p3 + OVAp in DOTAP liposomes or with dendritic cells treated with p3 and OVAp)	lysis of B4 hybridoma cells (endogenous IgE peptides on H-2b) ([1]; 129/SvEv IgE-/- mice immunized with p3 + OVAp in DOTAP liposomes or with dendritic cells treated with p3 and OVAp)	degree of lysis of B4 hybridoma cells, IgE+/+ versus IgE-/- mice ([1]; CTL from equivalently immunized 129/SvEv IgE+/+ and IgE-/- mice)	levels of target cell lysis, peptide immunization versus dendritic cell immunization ([1]; p3 + OVAp in DOTAP liposomes versus dendritic cells treated with p3 and OVAp, 129/SvEv mice)	immunoglobulin E production by 26.82 hybridoma cells (H-2d) (26.82 hybridoma cells)	CTL response against p3-treated P815 target cells ([2]; BALB/c mice immunized with p3 alone)	CTL response against p3-treated P815 target cells ([2]; BALB/c mice immunized with p3 in liposomes, relative to p3 alone)	IgE-specific CTL response relative to test peptides p1 and p2 ([2]; BALB/c mice, chromium release)	lysis of p3-contacted EL-4 lymphoma cells [3]	KLH-specific IgE PCA titre (KLH-specific IgE)	lysis of p3-contacted P815 cells [4]	lysis of 26.82 hybridoma cells (H-2d haplotype) (26.82 hybridomas)	immunoglobulin E level in culture supernatant [5]	lysis of 26.82 hybridoma cells / CTL response to naturally processed and presented IgE peptides ([6]; BALB/c mice immunized with 2x10^4 dendritic cells treated with p3 and OVAp)	magnitude of CTL response after incubating dendritic cells with DOTAP liposomes ([6]; dendritic cells incubated with p3 and OVAp with DOTAP liposomes)	IgE production by B4 hybridoma cells (H-2b) (B4 hybridoma cells)
CC[C@H](C)[C@H](NC(=O)[C@H](Cc1ccccc1)NC(=O)[C@H](CS)NC(=O)[C@H](Cc1ccc(O)cc1)NC(=O)[C@H](CC(C)C)NC(=O)[C@H](CCC(N)=O)NC(=O)[C@@H](NC(=O)[C@@H](NC(=O)[C@H](CO)NC(=O)[C@H](Cc1c[nH]cn1)NC(=O)[C@H](Cc1ccccc1)NC(=O)[C@H](C)NC(=O)[C@H](CC(N)=O)NC(=O)[C@@H]1CCCN1C(=O)[C@H](CC(=O)O)NC(=O)[C@H](CS)NC(=O)[C@H](CO)NC(=O)[C@H](CO)NC(=O)[C@H](Cc1c[nH]cn1)NC(=O)[C@H](CC(C)C)NC(=O)[C@@H](N)CC(C)C)[C@@H](C)O)[C@@H](C)CC)C(=O)N[C@@H](Cc1ccc(O)cc1)C(=O)NCC(=O)N[C@@H](Cc1c[nH]cn1)C(=O)N[C@H](C(=O)N[C@@H](CC(C)C)C(=O)N[C@@H](CC(N)=O)C(=O)N[C@@H](CC(=O)O)C(=O)N[C@H](C(=O)N[C@@H](CO)C(=O)N[C@H](C(=O)N[C@@H](CO)C(=O)N[C@@H](Cc1c[nH]c2ccccc12)C(=O)N[C@@H](CC(C)C)C(=O)N[C@@H](CCSC)C(=O)N[C@@H](CC(=O)O)C(=O)N[C@@H](CC(=O)O)C(=O)N[C@@H](CCCNC(=N)N)C(=O)N[C@@H](CCC(=O)O)C(=O)O)C(C)C)C(C)C)[C@@H](C)CC [p3] (H-LLHSSCDPNAFHSTIQLYCFIYGHILNDVSVSWLMDDRE-OH)	able to lyse B4 hybridoma cells	able to lyse target cells	comparable	similar	decreased immunoglobulin E production	did not induce a substantial CTL-response	amplified the CTL response	higher chromium release levels	able to lyse target cells	20	Comparable levels of lysis	not 26.82 hybridoma cells	22 nanograms per milliliter and 12 nanograms per milliliter	Comparable levels of lysis; also recorded: able to elicit in the DC-immunized mice a cytotoxic T-lymphocyte response	not amplified	did not decrease IgE production
LYCFIYGHI [p1]										20						
